No constants are given. Whether binding was seen depends on the method and setting.
Assays:
[1] = molecular target: ClpC1-Δ3 (N-terminal truncated mutant, both N-terminal domains deleted) (Mycobacterium tuberculosis H37Rv) (UniProt P9WPC9); test: SEC; Superdex-200 (1×30 cm) in buffer A (50 mM Tris-HCl pH 7.6, 100 mM KCl, 5 mM DTT, 10% glycerol, 0.01% Triton X-100), in the absence of ATP and MgCl2; fractions checked by SDS-PAGE; both purified
[2] = molecular target: ClpC1–806 (Δ807–848 aa) (Mycobacterium tuberculosis H37Rv) (UniProt P9WPC9); test: as above
[3] = molecular target: ClpC1–721 (Δ722–848 aa) (Mycobacterium tuberculosis H37Rv) (UniProt P9WPC9); test: SEC; Superdex-200 (1×30 cm) in buffer A (50 mM Tris-HCl pH 7.6, 100 mM KCl, 5 mM DTT, 10% glycerol, 0.01% Triton X-100) with 15 mM ATP and 10 mM MgCl2; protein pre-incubated with 15 mM ATP and 10 mM MgCl2 for 30 min at 25°C; monomer to hexamer; fractions checked by SDS-PAGE; both purified
[4] = molecular target: ClpC1–670 (Δ671–848 aa) (Mycobacterium tuberculosis H37Rv) (UniProt P9WPC9); test: as above
[5] = molecular target: ClpC1–704 (Δ705–848 aa) (Mycobacterium tuberculosis H37Rv) (UniProt P9WPC9); test: as above
[6] = molecular target: ClpC1–746 (Δ747–848 aa) (Mycobacterium tuberculosis H37Rv) (UniProt P9WPC9); test: SEC; Superdex-200 (1×30 cm) in buffer A (50 mM Tris-HCl pH 7.6, 100 mM KCl, 5 mM DTT, 10% glycerol, 0.01% Triton X-100), in the absence of ATP and MgCl2; fractions checked by SDS-PAGE; both purified
[7] = molecular target: ClpC1–786 (Δ787–848 aa) (Mycobacterium tuberculosis H37Rv) (UniProt P9WPC9); test: as above
[8] = molecular target: ClpC1–766 (Δ767–848 aa) (Mycobacterium tuberculosis H37Rv) (UniProt P9WPC9); test: as above

By UniProt entry, the sequences of proteins in these tests, tags left out. Where a name states a change or a piece, a line headed by the entry shows the natural chain unless it says otherwise. Residues count along the entry.
UniProt P9WPC9, 1-670, stated change not applied: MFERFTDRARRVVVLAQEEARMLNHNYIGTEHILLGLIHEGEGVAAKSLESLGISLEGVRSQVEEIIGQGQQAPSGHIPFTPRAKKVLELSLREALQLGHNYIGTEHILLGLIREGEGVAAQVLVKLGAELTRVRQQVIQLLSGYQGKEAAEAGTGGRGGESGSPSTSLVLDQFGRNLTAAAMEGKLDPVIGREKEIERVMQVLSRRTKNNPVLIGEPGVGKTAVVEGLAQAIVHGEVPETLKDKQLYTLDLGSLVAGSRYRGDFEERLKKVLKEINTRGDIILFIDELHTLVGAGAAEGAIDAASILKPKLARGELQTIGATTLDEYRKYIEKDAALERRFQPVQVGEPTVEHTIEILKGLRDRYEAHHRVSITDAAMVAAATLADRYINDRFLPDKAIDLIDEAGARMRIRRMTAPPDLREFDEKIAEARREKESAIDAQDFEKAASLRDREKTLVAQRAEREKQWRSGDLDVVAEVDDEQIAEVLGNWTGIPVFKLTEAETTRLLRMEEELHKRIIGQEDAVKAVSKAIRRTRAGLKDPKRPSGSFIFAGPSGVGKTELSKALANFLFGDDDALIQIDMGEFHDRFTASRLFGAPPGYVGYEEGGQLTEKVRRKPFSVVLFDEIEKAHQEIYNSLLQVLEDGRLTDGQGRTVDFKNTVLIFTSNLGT
UniProt P9WPC9, 1-704, stated change not applied: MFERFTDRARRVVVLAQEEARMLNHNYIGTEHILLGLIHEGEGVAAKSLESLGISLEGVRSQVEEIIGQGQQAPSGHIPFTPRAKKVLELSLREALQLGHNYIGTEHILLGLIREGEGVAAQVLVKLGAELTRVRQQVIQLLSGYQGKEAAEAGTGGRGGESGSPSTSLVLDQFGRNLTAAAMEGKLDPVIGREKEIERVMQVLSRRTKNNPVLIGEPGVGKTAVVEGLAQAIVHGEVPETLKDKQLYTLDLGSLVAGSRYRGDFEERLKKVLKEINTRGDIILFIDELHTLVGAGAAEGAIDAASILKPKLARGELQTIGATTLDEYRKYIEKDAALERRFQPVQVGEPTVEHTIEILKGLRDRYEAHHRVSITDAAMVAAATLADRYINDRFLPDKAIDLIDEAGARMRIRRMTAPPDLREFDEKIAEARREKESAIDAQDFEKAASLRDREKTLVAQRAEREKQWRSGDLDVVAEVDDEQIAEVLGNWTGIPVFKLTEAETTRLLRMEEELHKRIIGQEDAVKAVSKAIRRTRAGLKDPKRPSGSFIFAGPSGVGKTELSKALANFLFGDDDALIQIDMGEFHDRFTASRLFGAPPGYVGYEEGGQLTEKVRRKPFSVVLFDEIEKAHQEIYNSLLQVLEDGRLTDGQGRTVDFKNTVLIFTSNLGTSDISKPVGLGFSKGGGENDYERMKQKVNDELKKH
UniProt P9WPC9, 1-721, stated change not applied: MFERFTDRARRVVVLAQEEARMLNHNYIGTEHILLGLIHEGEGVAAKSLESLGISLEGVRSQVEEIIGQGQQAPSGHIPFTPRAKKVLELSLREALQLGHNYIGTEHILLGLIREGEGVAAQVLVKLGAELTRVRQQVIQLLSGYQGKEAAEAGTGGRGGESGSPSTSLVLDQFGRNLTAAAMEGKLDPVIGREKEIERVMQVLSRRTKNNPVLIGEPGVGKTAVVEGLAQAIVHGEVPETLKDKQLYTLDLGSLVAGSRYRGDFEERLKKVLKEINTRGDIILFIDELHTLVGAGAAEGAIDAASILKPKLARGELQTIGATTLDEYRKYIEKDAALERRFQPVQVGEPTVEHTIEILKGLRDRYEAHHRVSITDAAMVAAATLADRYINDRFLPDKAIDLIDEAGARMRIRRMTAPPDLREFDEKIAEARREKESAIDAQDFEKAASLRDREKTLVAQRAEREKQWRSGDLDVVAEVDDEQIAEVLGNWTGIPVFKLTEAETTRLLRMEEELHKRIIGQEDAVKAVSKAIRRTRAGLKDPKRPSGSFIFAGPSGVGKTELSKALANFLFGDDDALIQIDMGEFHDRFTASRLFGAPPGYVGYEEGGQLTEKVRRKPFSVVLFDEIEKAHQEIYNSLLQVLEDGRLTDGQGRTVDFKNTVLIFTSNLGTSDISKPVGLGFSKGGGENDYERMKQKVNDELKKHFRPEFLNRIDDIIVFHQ
UniProt P9WPC9, 1-746, stated change not applied: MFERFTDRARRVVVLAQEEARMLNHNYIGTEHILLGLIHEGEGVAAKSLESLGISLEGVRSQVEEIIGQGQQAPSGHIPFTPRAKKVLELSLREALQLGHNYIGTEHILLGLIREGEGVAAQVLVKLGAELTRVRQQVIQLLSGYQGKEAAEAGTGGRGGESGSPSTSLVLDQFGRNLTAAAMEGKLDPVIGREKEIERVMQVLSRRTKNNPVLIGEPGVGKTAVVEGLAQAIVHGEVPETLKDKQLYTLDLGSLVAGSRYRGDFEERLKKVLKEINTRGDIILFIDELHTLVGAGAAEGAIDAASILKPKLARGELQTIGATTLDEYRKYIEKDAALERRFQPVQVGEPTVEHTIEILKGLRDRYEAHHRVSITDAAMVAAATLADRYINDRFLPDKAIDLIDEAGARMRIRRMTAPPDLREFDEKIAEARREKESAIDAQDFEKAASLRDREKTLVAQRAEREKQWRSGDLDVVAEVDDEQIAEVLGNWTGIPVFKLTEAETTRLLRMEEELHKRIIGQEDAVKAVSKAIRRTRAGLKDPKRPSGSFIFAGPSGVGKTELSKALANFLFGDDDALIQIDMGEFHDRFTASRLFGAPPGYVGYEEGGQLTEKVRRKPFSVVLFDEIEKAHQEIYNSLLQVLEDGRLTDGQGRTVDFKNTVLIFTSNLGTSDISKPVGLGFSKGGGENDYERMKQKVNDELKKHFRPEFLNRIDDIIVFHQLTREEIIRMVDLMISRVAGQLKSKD
UniProt P9WPC9, 1-766, stated change not applied: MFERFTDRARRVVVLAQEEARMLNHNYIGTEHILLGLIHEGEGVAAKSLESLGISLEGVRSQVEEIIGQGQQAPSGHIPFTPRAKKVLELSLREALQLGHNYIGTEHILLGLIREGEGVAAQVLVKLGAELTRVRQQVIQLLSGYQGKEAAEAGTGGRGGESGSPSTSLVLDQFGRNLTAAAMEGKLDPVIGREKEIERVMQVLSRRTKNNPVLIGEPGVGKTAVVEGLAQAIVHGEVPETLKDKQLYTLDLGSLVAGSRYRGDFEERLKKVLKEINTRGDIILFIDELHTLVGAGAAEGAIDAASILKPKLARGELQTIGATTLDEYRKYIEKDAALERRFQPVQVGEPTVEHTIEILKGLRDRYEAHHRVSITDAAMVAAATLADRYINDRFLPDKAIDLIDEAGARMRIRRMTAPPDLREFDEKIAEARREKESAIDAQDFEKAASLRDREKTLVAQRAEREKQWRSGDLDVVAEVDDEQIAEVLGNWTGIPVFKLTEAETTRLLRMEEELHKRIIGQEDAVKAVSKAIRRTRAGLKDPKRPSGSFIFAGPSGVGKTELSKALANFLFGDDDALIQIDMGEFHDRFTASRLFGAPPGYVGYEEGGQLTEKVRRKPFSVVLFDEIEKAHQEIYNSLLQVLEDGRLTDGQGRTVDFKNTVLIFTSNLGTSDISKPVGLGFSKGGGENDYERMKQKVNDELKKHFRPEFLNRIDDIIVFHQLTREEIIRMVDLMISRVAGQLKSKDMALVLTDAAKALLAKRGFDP
UniProt P9WPC9, 1-786, stated change not applied: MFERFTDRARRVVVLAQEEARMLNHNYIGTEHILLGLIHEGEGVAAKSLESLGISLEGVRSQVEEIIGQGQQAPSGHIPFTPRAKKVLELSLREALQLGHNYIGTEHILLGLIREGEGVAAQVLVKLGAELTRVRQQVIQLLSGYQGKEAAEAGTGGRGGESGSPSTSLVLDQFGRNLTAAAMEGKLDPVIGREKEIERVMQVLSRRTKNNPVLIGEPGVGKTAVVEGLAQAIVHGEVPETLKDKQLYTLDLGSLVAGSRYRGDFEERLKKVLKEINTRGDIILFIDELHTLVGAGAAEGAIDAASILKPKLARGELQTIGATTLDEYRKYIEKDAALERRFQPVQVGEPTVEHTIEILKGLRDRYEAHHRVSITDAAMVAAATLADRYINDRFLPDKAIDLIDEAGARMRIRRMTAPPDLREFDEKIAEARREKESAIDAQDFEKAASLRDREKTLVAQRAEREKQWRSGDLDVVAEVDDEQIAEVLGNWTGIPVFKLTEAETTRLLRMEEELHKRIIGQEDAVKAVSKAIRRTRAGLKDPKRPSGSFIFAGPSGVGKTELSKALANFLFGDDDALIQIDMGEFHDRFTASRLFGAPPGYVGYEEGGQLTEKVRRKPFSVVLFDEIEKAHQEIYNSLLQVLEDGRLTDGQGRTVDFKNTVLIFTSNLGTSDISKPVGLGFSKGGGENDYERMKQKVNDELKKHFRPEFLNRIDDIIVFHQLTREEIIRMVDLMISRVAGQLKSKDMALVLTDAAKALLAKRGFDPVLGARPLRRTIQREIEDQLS
UniProt P9WPC9, 1-806, stated change not applied: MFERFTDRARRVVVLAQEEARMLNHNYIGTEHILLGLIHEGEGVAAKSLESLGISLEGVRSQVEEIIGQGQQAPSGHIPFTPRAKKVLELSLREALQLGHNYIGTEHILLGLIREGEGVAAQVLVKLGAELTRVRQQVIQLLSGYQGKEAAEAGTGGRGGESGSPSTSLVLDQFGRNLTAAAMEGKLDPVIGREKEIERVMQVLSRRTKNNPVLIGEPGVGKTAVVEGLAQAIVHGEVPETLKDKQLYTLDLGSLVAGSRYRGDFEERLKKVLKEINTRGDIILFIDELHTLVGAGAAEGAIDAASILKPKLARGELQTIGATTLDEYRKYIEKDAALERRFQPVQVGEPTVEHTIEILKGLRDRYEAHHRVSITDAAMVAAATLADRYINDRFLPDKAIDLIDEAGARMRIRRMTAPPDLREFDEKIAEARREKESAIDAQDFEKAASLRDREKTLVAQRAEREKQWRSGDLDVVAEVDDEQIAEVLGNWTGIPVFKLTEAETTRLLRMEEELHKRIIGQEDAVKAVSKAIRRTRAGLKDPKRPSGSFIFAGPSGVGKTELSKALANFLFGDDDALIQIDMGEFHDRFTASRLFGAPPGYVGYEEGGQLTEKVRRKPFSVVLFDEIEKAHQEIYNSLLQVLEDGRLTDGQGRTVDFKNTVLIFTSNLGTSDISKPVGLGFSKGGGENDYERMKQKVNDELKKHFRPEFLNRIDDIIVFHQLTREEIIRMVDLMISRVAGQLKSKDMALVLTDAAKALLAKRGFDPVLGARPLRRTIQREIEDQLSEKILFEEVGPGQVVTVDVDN
UniProt P9WPC9, 114-848, stated change not applied: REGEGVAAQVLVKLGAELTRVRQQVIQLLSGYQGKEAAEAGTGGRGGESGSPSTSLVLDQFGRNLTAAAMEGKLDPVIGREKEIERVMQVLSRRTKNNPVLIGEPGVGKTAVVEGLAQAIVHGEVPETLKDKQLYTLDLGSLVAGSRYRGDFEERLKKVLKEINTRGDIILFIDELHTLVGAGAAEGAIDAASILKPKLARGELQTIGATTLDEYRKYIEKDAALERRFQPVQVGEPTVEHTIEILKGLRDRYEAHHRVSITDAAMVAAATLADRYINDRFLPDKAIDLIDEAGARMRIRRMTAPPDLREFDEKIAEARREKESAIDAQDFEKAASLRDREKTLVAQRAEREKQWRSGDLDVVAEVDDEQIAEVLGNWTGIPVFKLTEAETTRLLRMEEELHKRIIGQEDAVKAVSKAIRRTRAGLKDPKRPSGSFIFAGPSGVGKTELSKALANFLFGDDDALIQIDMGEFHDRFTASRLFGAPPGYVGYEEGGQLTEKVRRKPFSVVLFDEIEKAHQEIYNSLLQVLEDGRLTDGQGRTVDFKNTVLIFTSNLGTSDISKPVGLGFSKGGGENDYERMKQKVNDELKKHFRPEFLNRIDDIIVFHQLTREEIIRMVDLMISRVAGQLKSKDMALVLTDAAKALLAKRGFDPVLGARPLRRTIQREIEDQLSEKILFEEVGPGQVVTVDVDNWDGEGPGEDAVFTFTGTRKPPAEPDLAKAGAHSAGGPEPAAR

ClpC1-Δ3 (N-terminal truncated mutant, both N-terminal domains deleted) (from UniProt P9WPC9 114-848) (domain or fragment)
binding [1]: no binding (condition: in the absence of ATP)

ClpC1–806 (Δ807–848 aa) (from UniProt P9WPC9 1-806) (domain or fragment)
binding [2]: no binding (condition: in the absence of ATP)

ClpC1–721 (Δ722–848 aa) (from UniProt P9WPC9 1-721) (domain or fragment)
binding [3]: no binding

ClpC1–670 (Δ671–848 aa) (from UniProt P9WPC9 1-670) (domain or fragment)
binding [4]: no binding

ClpC1–704 (Δ705–848 aa) (from UniProt P9WPC9 1-704) (domain or fragment)
binding [5]: no binding

ClpC1–746 (Δ747–848 aa) (from UniProt P9WPC9 1-746) (domain or fragment)
binding [6]: no binding (condition: in the absence of ATP)

ClpC1–786 (Δ787–848 aa) (from UniProt P9WPC9 1-786) (domain or fragment)
binding [7]: no binding (condition: in the absence of ATP)

ClpC1–766 (Δ767–848 aa) (from UniProt P9WPC9 1-766) (domain or fragment)
binding [8]: no binding (condition: in the absence of ATP)

From publication PMC3527473, “The C-Terminus of ClpC1 of Mycobacterium tuberculosis Is Crucial for Its Oligomerization and Function” (PLoS ONE, 2012)
